Counter-ions that a name gives are not always drawn. ± gives the standard deviation of the averaged measurements. The list shows a part of the results. The data scatter; read single values as rough.

The test concerns Salmonella enterica serovar Typhimurium ST313 D23580. Briefly: normalized bacterial growth (OD600 20 h minus 0 h, interquartile-mean normalized) (fraction of plate interquartile mean); higher = more bacterial growth (less inhibition). The following applies: LPM (pH 5.8, low phosphate, low Mg2+), concentration: 10 µM, temperature: 37 °C.
The molecule `Cc1ccc(S(=O)(=O)NC(=O)NN2CC3CCCC3C2)cc1` (stereo not drawn) had a normalized bacterial growth of 1.08.

Take `COc1ccc(-c2cc(=O)c3c(O)cc(O)cc3o2)cc1`: the normalized bacterial growth was determined as 0.879.

Turning to `c1ccc(C(NCCNC(c2ccccc2)c2ccccc2)c2ccccc2)cc1`, the normalized bacterial growth amounted to 0.788.

On to `CC(=O)N[C@@H](CC(=O)N[C@@H](CCC(=O)O)C(=O)O)C(=O)O`, for which the normalized bacterial growth came to 1.16.

In turn, `Nc1nc(=O)c2[nH]c(=O)cnc2[nH]1` gave a normalized bacterial growth of 1.15.

In the case of `O=c1c(O)c(-c2cc(O)c(O)c(O)c2)oc2cc(O)cc(O)c12`, the normalized bacterial growth turned out to be 1.13.

Take `O=C(O)c1cc2ccccc2[nH]1`: the normalized bacterial growth was 1.07.

`CCn1cc(C(=O)O)c(=O)c2cnc(N3CCNCC3)nc21` gave a normalized bacterial growth of 0.953.

As to `COc1cc2nc(N3CCN(C(=O)c4ccco4)CC3)nc(N)c2cc1OC` [Prazosin hydrochloride], the normalized bacterial growth is 1.2.

In turn, `NCCS(=O)(=O)O` [Taurine] showed a normalized bacterial growth of 1.15.

For `N#CC(C#N)=C(N)/C(C#N)=C/c1ccc(O)cc1` [Tyrphostin AG 112], the normalized bacterial growth is 1.21.

`CC(=O)Oc1ccc2c(c1C(C)C)CCC1C(C)(C)CCC[C@]21C` (stereo partly drawn) yielded a normalized bacterial growth of 0.98.

`COc1nc(C)nc(Cl)c1NC1=NCCN1` [Moxonidine hydrochloride] showed a normalized bacterial growth of 1.33.

For `CC(=O)OC1CCC23CC1(C)CCC2C(C)(C)CC3OC(C)=O` (stereo not drawn), the normalized bacterial growth came to 0.693.

In turn, `C=CC[C@@H]1/C=C(\C)C[C@H](C)C[C@H](OC)[C@H]2O[C@@](O)(C(=O)C(=O)N3CCCC[C@H]3C(=O)O[C@H](/C(C)=C/[C@@H]3CC[C@@H](O)[C@H](OC)C3)[C@H](C)[C@@H](O)CC1=O)[C@H](C)C[C@@H]2OC` showed a normalized bacterial growth of 0.872.

For `O=Nc1c(-c2c(O)[nH]c3ccccc23)[nH]c2ccccc12` [Indirubin-3'-oxime], the normalized bacterial growth amounted to 0.878.

As for `NC[C@H]1O[C@H](O[C@H]2[C@H](O[C@@H]3O[C@H](CO)[C@@H](O)[C@H]3O)[C@@H](O)[C@H](N)C[C@@H]2N)[C@H](N)[C@@H](O)[C@@H]1O`, the normalized bacterial growth amounted to 1.24.

Consider `NC[C@H]1O[C@H](O[C@H]2[C@H](O[C@@H]3O[C@H](CO)[C@@H](O)[C@H]3O)[C@@H](O)[C@H](N)C[C@@H]2N)[C@H](N)[C@@H](O)[C@@H]1O` [Ribostamycin sulfate salt], for which the normalized bacterial growth stood at 1.24.

`CCCCC/C=C\C[C@@H](O)/C=C/c1cccc(C[C@@H](O)CCCCO)n1` gave a normalized bacterial growth of 0.745.

Turning to `COc1ccc2[nH]cc(CCNC(C)=O)c2c1`, the normalized bacterial growth was determined as 1.34.

In turn, `O=C([O-])c1ccccc1O.[Na+]` showed a normalized bacterial growth of 1.33.

In turn, `COc1ccc(C(=O)NCc2cccnc2)cc1C(=O)NCc1cccnc1` [Picotamide] gave a normalized bacterial growth of 1.07.

In turn, `COc1ccc(C(=O)NCc2cccnc2)cc1C(=O)NCc1cccnc1` [Picotamide monohydrate] came in with a normalized bacterial growth of 1.19.

Turning to `CC1(C)CCC[C@](C)([C@H]2CC[C@]3(C)[C@@H]2[C@H](O)C[C@@H]2[C@@]4(C)CC[C@H](O)C(C)(C)[C@@H]4CC[C@]23C)O1`, the normalized bacterial growth amounted to 0.91.

`N=C(N)c1ccccc1` [Benzamidine hydrochloride] registered a normalized bacterial growth of 0.778.

The molecule `O=C(NCCNCC(O)COc1ccc(O)cc1)N1CCOCC1` (stereo not drawn) [Xamoterol hemifumarate] showed a normalized bacterial growth of 0.872.

The molecule `CCN(Cc1ccncc1)C(=O)C(CO)c1ccccc1` (stereo not drawn) [Tropicamide] had a normalized bacterial growth of 0.787.

In turn, `OC(CCN1CCCCC1)(c1ccccc1)C1CC2C=CC1C2` (stereo not drawn) [Biperiden hydrochloride] registered a normalized bacterial growth of 0.909 ± 0.28.

In turn, `OC(CCN1CCCCC1)(c1ccccc1)C1CC2C=CC1C2` (stereo not drawn) registered a normalized bacterial growth of 0.71.

In turn, `CCN(CC)CC#CCOC(=O)C(O)(c1ccccc1)C1CCCCC1` (stereo not drawn) [Oxybutynin Chloride] registered a normalized bacterial growth of 0.988.

The molecule `CC(C)CCC[C@@H](C)[C@H]1CC[C@H]2[C@@H]3CC=C4CC(=O)CC[C@]4(C)[C@H]3CC[C@]12C` registered a normalized bacterial growth of 1.02.

The molecule `CC(C)N1CCN(c2ccc(OCC3COC(Cn4cncn4)(c4ccc(Cl)cc4Cl)O3)cc2)CC1` (stereo not drawn) [Terconazole] gave a normalized bacterial growth of 1.1.

Consider `O=C1CN2Cc3c(ccc(Cl)c3Cl)N=C2N1`, for which the normalized bacterial growth amounted to 0.845.

On to `C#CCCCCCCCCCCCC(O)CC(O)CO` (stereo not drawn), for which the normalized bacterial growth came to 0.627.

Molecule `CC1(C)CCC[C@](C)([C@H]2CC[C@]3(C)[C@@H]2[C@H](O)C[C@@H]2[C@@]4(C)CC[C@H](O)C(C)(C)[C@@H]4[C@@H](O)C[C@]23C)O1` displayed a normalized bacterial growth of 0.89.

The molecule `CC(C)NCC(O)COc1ccc(COCCOC(C)C)cc1` (stereo not drawn) came in with a normalized bacterial growth of 1.11.

`CC(C)NCC(O)COc1ccc(COCCOC(C)C)cc1` (stereo not drawn) [Bisoprolol hemifumarate salt] registered a normalized bacterial growth of 1.01.

With `Nc1nc(=S)c2ncn([C@@H]3O[C@H](CO)[C@@H](O)[C@H]3O)c2[nH]1` [Thioguanosine], the normalized bacterial growth amounted to 0.489.

Consider `CC(=O)OC[C@@]1(O)C[C@@]23CC[C@@H]4c5ccoc5CC[C@@]4(C)[C@@H]2CC[C@@H]1C3`, for which the normalized bacterial growth is 0.791 ± 0.15.

`COc1cc2c(cc1CC=C(C)C)C(=O)C[C@@H](c1ccc(O)cc1)O2` registered a normalized bacterial growth of 0.991.

Regarding `CC(N)=O` [Acetamide], the normalized bacterial growth worked out at 0.977.

With `COc1ccc(-c2cc(=O)c3c(O)cc(O)cc3o2)cc1O`, the normalized bacterial growth came out at 0.993.

With `COc1cc2ccc(=O)oc2c(OC)c1OC`, the normalized bacterial growth was 0.954.

The molecule `O=C([O-])[C@H]1/C(=C/CO)O[C@@H]2CC(=O)N21.[Li+]` returned a normalized bacterial growth of 1.12.

`CC(=O)N[C@@H](CC(C)C)C(=O)O` yielded a normalized bacterial growth of 1.24.

`Nc1nc(=O)c2nc(CNc3ccc(C(=O)N[C@@H](CCC(=O)O)C(=O)O)cc3)cnc2[nH]1` showed a normalized bacterial growth of 1.22.

The molecule `C=CC[S+]([O-])C[C@H](N)C(=O)O` (mixture of isomers) registered a normalized bacterial growth of 1.14.

`COc1c2ccoc2nc2c(OC)c(OCC(O)C(C)(C)O)ccc12` (stereo not drawn) displayed a normalized bacterial growth of 0.941.

`COc1c2ccoc2nc2c(OC)c(OCC(O)C(C)(C)O)ccc12` (stereo not drawn) [Evoxine] came in with a normalized bacterial growth of 0.936.

`CCc1cccc(N(C)C(=N)Nc2cccc3ccccc23)c1` registered a normalized bacterial growth of 0.933.

In turn, `CN1CCc2cc3c(cc2C(=O)Cc2ccc4c(c2C1)OCO4)OCO3` registered a normalized bacterial growth of 1.09.

Consider `CC[C@H]1OC(=O)[C@H](C)[C@@H](O[C@H]2C[C@@](C)(OC)[C@@H](O)[C@H](C)O2)[C@H](C)[C@@H](O[C@@H]2O[C@H](C)C[C@H](N(C)C)[C@H]2O)[C@](C)(O)C[C@@H](C)/C(=N\OCOCCOC)[C@H](C)[C@@H](O)[C@]1(C)O` [Roxithromycin], for which the normalized bacterial growth is 0.392.

In the case of `CC[C@H]1OC(=O)[C@H](C)[C@@H](O[C@H]2C[C@@](C)(OC)[C@@H](O)[C@H](C)O2)[C@H](C)[C@@H](O[C@@H]2O[C@H](C)C[C@H](N(C)C)[C@H]2O)[C@](C)(O)C[C@@H](C)/C(=N\OCOCCOC)[C@H](C)[C@@H](O)[C@]1(C)O`, the normalized bacterial growth is 0.636.

These data come from the supplement of paper PMC10398353.
